These results are taken from PMC9440123, “Rtt105 regulates RPA function by configurationally stapling the flexible domains” (Nature Communications, 2022).

Sequences of proteins named here, by UniProt entry; tags and fusion partners are left off. A change or cut given only in a name is not applied to a line headed by its entry.
UniProt P22336: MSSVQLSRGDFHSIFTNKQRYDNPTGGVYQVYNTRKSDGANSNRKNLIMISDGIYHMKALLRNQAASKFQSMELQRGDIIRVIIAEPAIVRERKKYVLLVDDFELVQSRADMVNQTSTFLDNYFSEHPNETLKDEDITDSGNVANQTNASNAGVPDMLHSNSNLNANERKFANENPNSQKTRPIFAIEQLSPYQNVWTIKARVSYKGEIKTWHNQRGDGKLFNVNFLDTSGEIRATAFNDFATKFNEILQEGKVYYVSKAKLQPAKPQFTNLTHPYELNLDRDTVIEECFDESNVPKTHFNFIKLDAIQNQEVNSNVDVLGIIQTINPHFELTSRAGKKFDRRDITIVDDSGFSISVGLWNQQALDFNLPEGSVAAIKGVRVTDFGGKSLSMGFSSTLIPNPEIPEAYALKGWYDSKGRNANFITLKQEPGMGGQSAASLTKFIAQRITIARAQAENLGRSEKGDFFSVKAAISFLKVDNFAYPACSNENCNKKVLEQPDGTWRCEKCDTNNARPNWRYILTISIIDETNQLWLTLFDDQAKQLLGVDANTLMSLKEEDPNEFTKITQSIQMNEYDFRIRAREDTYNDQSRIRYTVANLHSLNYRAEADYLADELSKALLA
UniProt P26754: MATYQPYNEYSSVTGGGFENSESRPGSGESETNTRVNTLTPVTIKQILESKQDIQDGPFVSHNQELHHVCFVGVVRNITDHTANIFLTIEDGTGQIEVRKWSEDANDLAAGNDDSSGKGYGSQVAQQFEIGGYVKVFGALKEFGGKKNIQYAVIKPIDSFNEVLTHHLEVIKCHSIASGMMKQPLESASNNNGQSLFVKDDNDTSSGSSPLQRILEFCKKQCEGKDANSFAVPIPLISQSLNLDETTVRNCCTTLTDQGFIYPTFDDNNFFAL
UniProt P26755: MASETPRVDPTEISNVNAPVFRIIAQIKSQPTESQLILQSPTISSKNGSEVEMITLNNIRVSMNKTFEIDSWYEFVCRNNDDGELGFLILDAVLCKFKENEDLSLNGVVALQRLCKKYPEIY

Results are given in words; binding and its absence hold for the method and conditions named. Some entries that bind do so weakly or less than the wild type.

This test deals with Replication Protein A (RPA), S. cerevisiae heterotrimer of RPA70, RPA32 and RPA14 (S. cerevisiae) (UniProt P22336+P26754+P26755). The experiment in a line: AUC; sedimentation velocity as a14; Rtt105^Cy5, RPA and Rad52 with an equimolar amount of (dT)35; both purified.

B1: Rtt105^Cy5 (Rtt105^C13S labeled with Cy5 on Cys-12) (natural protein, S. cerevisiae, UniProt P40063 1-208, looked up)
chain: MYSNHNLNSDDCSFDWNEEKAAELQRTGVSFDRSLTPQSLRTSTRRLSEENKQQSGTMHIDTSPSVVSDIISSRRDRSQDFFGPHSSSPIAPSERQRADQRSRLESMRLTRRRDKMTKVRGGLEKMEEMIMQGEHLREMQRLKQEAQKNALPSDMAEYMEWQNNEDLEDDELLAFIEKQETYKNELEHFLNNANKNVYENNSYPNSHT
modifications: Cy5 (maleimide chemistry) on Cys-12
notes: Rtt105, S. cerevisiae, single-Cys version; also called Cy5-labeled Rtt105; fluorescent Rtt105; source: E. coli, purified similar to the wild-type protein, labeled with Cy5-maleimide
On to B1, for which the binding result was “binds weakly”.
